Here are results for three compounds from the supplement of paper PMC8551327.

The other results are listed elsewhere or left out. Rule as the data show it: active = 1.25 or more and inactive = the rest. Single values are uncertain, as repeats are few or missing.

The assay relates to Kcc2-LUC knock-in mouse primary cortical neurons (Kcc2 promoter reporter). The experiment in a line: Kcc2 promoter-driven luciferase activity relative to vehicle control (fold of vehicle (ratio)); higher = stronger Kcc2 promoter activation (Kcc2 expression enhancer). Particulars: 100 nM; 48 h.
`Cc1c(Cl)cccc1NC(=O)/C=C/c1ccccc1` [3'-Chloro-2'-methylcinnamanilide]: the “Kcc2 promoter-driven luciferase activity” value was inactive: 1.17.

On to `COc1ccc2ccccc2c1C1OC(=O)c2ccccc21` (stereo not drawn) [3-(2-Methoxynaphthalen-1-yl)-3H-2-benzofuran-1-one], for which the “Kcc2 promoter-driven luciferase activity” value was inactive: 0.79. Then `Cc1ccc([N+](=O)[O-])cc1NC(=O)c1cccc([N+](=O)[O-])c1O` [Benzamide, 2-hydroxy-N-(2-methyl-5-nitrophenyl)-3-nitro-], with inactive: 0.92.
